Source: PubChem BioAssay AID588590 (National Center for Advancing Translational Sciences (NCATS), 2011)
About 4,000 (1%) of roughly 390,000 compounds were called active. Inconclusive results, whose numbers are uncertain, are shown with a selection of clear calls. Calls follow the shape of the dose curve; as a rule, active = well fitted inhibition curve with a large enough effect; inconclusive = small, poorly fitted or top-dose-only effect, or another doubt; inactive = no such curve, though single readings can be large or run the other way. Where the call is inconclusive, the potency comes from a doubtful curve fit.

The chains behind the UniProt entries cited, without tags or fusion partners. Where a name states a change or a piece, a line headed by the entry shows the natural chain unless it says otherwise.
UniProt Q9UNA4: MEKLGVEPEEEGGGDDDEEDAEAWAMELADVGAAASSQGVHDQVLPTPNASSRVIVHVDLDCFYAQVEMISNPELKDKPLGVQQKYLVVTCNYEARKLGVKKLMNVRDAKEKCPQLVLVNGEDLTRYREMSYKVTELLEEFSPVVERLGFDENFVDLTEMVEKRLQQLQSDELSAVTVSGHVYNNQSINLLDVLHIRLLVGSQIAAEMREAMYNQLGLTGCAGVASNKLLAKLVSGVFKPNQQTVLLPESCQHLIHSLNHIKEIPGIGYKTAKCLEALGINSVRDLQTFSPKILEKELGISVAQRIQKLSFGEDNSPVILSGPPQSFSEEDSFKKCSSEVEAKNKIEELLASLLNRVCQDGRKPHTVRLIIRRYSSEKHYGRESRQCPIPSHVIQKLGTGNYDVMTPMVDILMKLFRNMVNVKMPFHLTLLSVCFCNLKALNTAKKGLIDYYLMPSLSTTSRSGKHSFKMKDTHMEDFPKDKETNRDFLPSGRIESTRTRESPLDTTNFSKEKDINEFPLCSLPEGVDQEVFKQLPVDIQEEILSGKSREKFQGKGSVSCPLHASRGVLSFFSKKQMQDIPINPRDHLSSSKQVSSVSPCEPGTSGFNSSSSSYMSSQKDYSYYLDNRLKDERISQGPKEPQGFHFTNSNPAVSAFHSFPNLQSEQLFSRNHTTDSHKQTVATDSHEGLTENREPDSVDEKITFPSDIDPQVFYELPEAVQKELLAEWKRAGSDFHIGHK

Biological target: DNA polymerase iota (Homo sapiens) (UniProt Q9UNA4)
Assay: qHTS for Inhibitors of Polymerase Iota
Details: Pol iota fluorescent replication assay, 10 min; series mostly up to 115 µM
In short: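 Fluorescent replication assay read twice, at 0 min and 10 min after adding 50 nM (final) substrate. Enzyme (10 nM) and compounds were first incubated 15 min at room temperature; enzyme-free buffer wells were negative controls.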
Potency is read from the fitted curve at half-maximal effect.

SMILES	Potency
CN(C)C(=O)Oc1ccc2c(c1)O/C(=C\c1ccc(Cl)cc1)C2=O	inactive
CCCCn1c(O)c(/C=C2\C=Nc3ccccc32)c(=O)[nH]c1=O	inconclusive: 31.6 µM [inhibitor, partial curve, poor fit]
COC(=O)C1=C(c2ccc(-c3ccccc3)c(F)c2)C[C@@H]2CC[C@H]1N2C(=O)NCCc1ccccc1	inconclusive: 79.4 µM [inhibitor, partial curve, poor fit]
COc1ccc(-n2c(O)c(/C=C3\C=Nc4ccc(Br)cc43)c(=O)[nH]c2=O)cc1	active: 7.94 µM
O=c1[nH]c(O)c(C=Nc2ccccc2Oc2ccccc2)c(=O)[nH]1	inconclusive: 28.2 µM [inhibitor, partial curve, poor fit]
Cn1nnc2cc(NC(=O)Nc3cccc(Cl)c3)ccc21	inconclusive: 14.1 µM [inhibitor, partial curve, poor fit]
COc1cccc(C2(O)CCN(Cc3ccncc3)CC2)c1	inactive
O=c1[nH]c(=S)[nH]c(O)c1N=Nc1ccc2c(c1)OCCO2	inconclusive: 79.4 µM [inhibitor, single point]
Cc1ccccc1-n1c(C)cc(/C=C2/C(=O)NC(=O)N(Cc3ccco3)C2=O)c1C	inconclusive: 20 µM [inhibitor, full curve, poor fit]
COc1ccc2[nH]c3c(c2c1)CCN=C3C	inactive
O=C(NC1CONC1=O)OCC(Cl)(Cl)Cl (configuration not stated)	inconclusive: 44.7 µM [inhibitor, partial curve, poor fit]
COc1ccc(-n2c(O)c(C=NCCN3CCN(C(C)=O)CC3)c(=O)[nH]c2=S)cc1	inconclusive: 79.4 µM [inhibitor, partial curve, poor fit]
CCc1cccc(NC(=O)CN2C(=O)CN=C(c3ccccc3F)c3cc(Cl)ccc32)c1	inconclusive: 79.4 µM [inhibitor, partial curve, poor fit]
Oc1ccc(/C=N/NP(=S)(c2ccccc2)c2ccccc2)c(O)c1O	inconclusive: 2.51 µM [inhibitor, full curve, poor fit]
O=C(O)COc1ccccc1/C=C1\C(=O)NC(=O)N(CCC2=CCCCC2)C1=O	inconclusive: 1.41 µM [inhibitor, full curve]
CCOC(=O)c1cc(-c2ccccc2)n(CCCC(=O)Nc2ccc(C)c(C)c2)c1C	inconclusive: 20 µM [inhibitor, partial curve, poor fit]
COc1cc([C@@H]2c3cc4c(cc3[C@H](O)[C@H]3COC(=O)[C@@H]23)OCO4)cc(OC)c1OC	inconclusive: 79.4 µM [inhibitor, partial curve]

Ordered by heavy-atom count (rising): some entries from above
SMILES	Potency
CN(C)C(=O)Oc1ccc2c(c1)O/C(=C\c1ccc(Cl)cc1)C2=O	inactive
Cc1ccccc1-n1c(C)cc(/C=C2/C(=O)NC(=O)N(Cc3ccco3)C2=O)c1C	inconclusive: 20 µM [inhibitor, full curve, poor fit]
CCc1cccc(NC(=O)CN2C(=O)CN=C(c3ccccc3F)c3cc(Cl)ccc32)c1	inconclusive: 79.4 µM [inhibitor, partial curve, poor fit]
